Data from PubChem BioAssay AID1347423 (Functional Genomics Laboratory (NCATS/FGL), 2020).
Hit rate of the full screen: of about 52,000 sequences, about 210 (0.4%) were called active.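 Rule for the calls: active = gene whose silencing raises cell survival under the drug, median off-target-corrected z-score across its silencing RNAs 2 or more; inactive = the rest.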 The list shows a part of the results.

Experiment: Resistance to Poly (ADP-Ribose) Polymerase inhibitor: Gene Identification via Genome-wide siRNA Screen
Details: mouse BRCA2 R2336H ES cells, olaparib, CellTiter-Glo viability; stronger effect = higher value
Method in brief: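 Mouse BRCA2 R2336H ES cells were reverse-transfected with siRNA (20 nM final), treated at 48 h with 500 nM olaparib, and read by CellTiter-Glo after 72 h. Scores: MAD-based z per siRNA, median per gene, seed off-target correction.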
In the case of “GGACAGUGGAAGGAAUCCATT against 2310033P09Rik”, the z-score is reported as inactive: 0.15.
In the case of “GCUCCUAUCCACAAUGCUGTT against D930005D10Rik”, the z-score is reported as inactive: 1.51.
With “GCUCUUUCUAGCUUAUGAUTT against 2810405I11Rik” the z-score was inactive: -0.716.
For “CCACAUUGGUACUAGUCAATT against 4932442K08Rik”, the z-score was inactive: -0.713.
For “GGGACAAUAAAACCAACACTT against A730098P15”, the z-score was inactive: -0.686.
In the case of CCGUGAAUUUGGAUGAUGGTT against T2, the z-score is reported as inactive: -1.3.
For “GGCUGUGCUGAUCACCUACTT against 0610011F06Rik”, the z-score was inactive: 0.462.
In the case of “GGAGCUUCUGGAGUAUUAUTT against 2700091N06Rik”, the z-score is reported as inactive: -0.611.
In the case of GAAAGGAAAGCUAGCCAUGTT against LOC434459, the z-score is reported as inactive: 0.869.
With GCUGUACGUUGUAUGUUGGTT against Ncbp2 the z-score was inactive: 1.02.
For GCCAUCCUUGUGCUAAGAGTT against Ifna4, the z-score was inactive: -0.858.
With GGGAAUAGAUCUGAACCGUTT against Cpe the z-score was inactive: -2.12.
In the case of “GGCUUAUUGGCUUGACCAATT against 4933417E01Rik”, the z-score is reported as inactive: 1.31.
With GGGUAACCACAGAGAGAAUTT against Slc12a4 the z-score was inactive: -0.95.
With GGUAAACAGAGGUUUUAAGTT against Golga3 the z-score was inactive: 1.26.
With “GGUGUUUGUUAACUACUCGTT against D430039N05Rik” the z-score was inactive: -0.187.
With CGGACAACAACCUCUGCCATT against Pycrl the z-score was inactive: -1.31.
In the case of GGGCAAGCAGUUUUUAUGGTT against Mcph1, the z-score is reported as inactive: 0.0351.
For GCCACAAGCAAUAGUCAGATT against Gm867, the z-score was inactive: 0.738.
With GGCACAAGAAAUUUGAUGATT against Gpc6 the z-score was inactive: -0.132.
For CCCAAUUCUUUCAACCCAGTT against Caln1, the z-score was inactive: 1.18.
For GCACAGAGCCUAAUCAUUCTT against Oog2, the z-score was inactive: -0.115.
In the case of CCUCUAGCAUUAGAAACACTT against Pax3, the z-score is reported as inactive: 0.153.
With GGUUAUUACGUAGUUGGUATT against Mcp the z-score was inactive: -0.714.
For “GGAGAAAACUAAAUAAGCATT against 4930579A11Rik”, the z-score was inactive: 0.578.
For GCUACUCUUAUUCUACUUCTT against Slc29a3, the z-score was inactive: 0.309.
In the case of GGUUUUUUUUUCGGCUUACTT against Cnga3, the z-score is reported as inactive: 0.304.
With CGCGUAUUUGAGAGAUUCUTT against Ckmt2 the z-score was inactive: 0.253.
In the case of GCAAAGUGGUUAUUUGAAATT against Cmya3, the z-score is reported as inactive: 0.289.
With “GGAGUUCCUGAUUUACGUCTT against 4930511O11Rik” the z-score was inactive: -0.549.
With GGCGACAUAUUUUUCAAACTT against Fmn the z-score was inactive: 1.16.
For GGAUAAAAGCAGAUAUGACTT against Hapln1, the z-score was inactive: -0.352.
With GGAUGUGCGUUCUCACAACTT against Suox the z-score was inactive: -0.476.
With “GCUGUGUGUGAUUGAUUGGTT against 8430406I07Rik” the z-score was inactive: 0.358.
In the case of “GCACAUUCAGAUGAGGACUTT against 1200013I08Rik”, the z-score is reported as inactive: 0.366.
For “CGAUGGAUCGCUUCCUACATT against 4933405I11Rik”, the z-score was inactive: -1.39.
For CCCAGCUGAAGUCUCAAAUTT against Cd209c, the z-score was inactive: 0.819.
For GCAUCGUGUGUGUAGAUAATT against AB030190, the z-score was inactive: -1.25.
With “CGAUGCUGUUCUUCAAUGUTT against 6330509G02Rik” the z-score was inactive: -1.85.
With GGAAAUCCGGCUCAUUGAUTT against Aass the z-score was inactive: -1.76.
In the case of “GGCAUCCUUGGUGUUUGUATT against 5830426I05Rik”, the z-score is reported as inactive: -2.26.
For GCCUUUGGAAGUUCAGAACTT against Ubce7ip1, the z-score was inactive: 0.325.
In the case of “GGAGCUCUUUGAGUACAUCTT against 1500035H01Rik”, the z-score is reported as inactive: 1.18.
For “GGAUUCUCGGUGAAAAAGATT against 2310010B21Rik”, the z-score was inactive: -0.667.
In the case of GCUGUACUAUCUUUUUCAUTT against Olfr165, the z-score is reported as inactive: 1.07.
In the case of GGUUGUUAGGAAUCGAUCCTT against Rps26, the z-score is reported as inactive: -2.9.
For GGAUCUUAUUUCAGAGCCCTT against Trhr2, the z-score was inactive: -0.417.
With GCAUUUAUUUGGUGGUGUUTT against Olfr1245 the z-score was inactive: 1.09.
In the case of GGAUACAUCAGUUUGUAGATT against Abhd6, the z-score is reported as inactive: 0.0263.
For GGGUCAAGAAGAAUCUUCUTT against Ppp1r14d, the z-score was inactive: 0.572.
For GGACCAGCCGAAAAUUACCTT against Cnksr2, the z-score was inactive: 0.696.
With “GGCUACUCGGCCCUCUGUUTT against 4930404N11Rik” the z-score was inactive: -0.973.
In the case of GGCAAUUUAAGAAAGAUGUTT against BC027174, the z-score is reported as inactive: -0.316.
In the case of GCAAGGCAUUUUUCUAUUUTT against Sacy, the z-score is reported as inactive: -0.239.
For “GGAAGAGCUUCCCUGUCUATT against C730027E14Rik”, the z-score was inactive: -2.49.
For GCAUCCGUUCUCCCUUAUGTT against Mrpl4, the z-score was inactive: -1.27.
With “GGAUGUUAUUCAGUUUUCATT against ICRFP703B1614Q5.5” the z-score was inactive: 0.664.
In the case of CCAAAUACCAUUUCCUACATT against Olfr495, the z-score is reported as inactive: 0.0794.
With “GGCAGAUUUGGCAAGACAATT against A730008L03Rik” the z-score was inactive: -1.
With GCUCAACGAAACAAUACCGTT against Il2rb the z-score was inactive: 1.17.
In the case of GGAUCGAAAUAGCUCAUGCTT against Hoxa5, the z-score is reported as inactive: 1.27.
With GGGUUAUAACUCCUAUUUCTT against Apex2 the z-score was inactive: 0.272.
In the case of “GGCCUUAAUUAGCCUCUCUTT against A630038D02”, the z-score is reported as inactive: -1.01.
With GGUGACCAAACUUAUCUACTT against Ercc2 the z-score was inactive: 0.163.
For “GGAAGCAGUCAGAGAAGAATT against 1190017O12Rik”, the z-score was inactive: 0.848.
